# Hit rate of the full screen: of about 300,000 compounds, about 3,700 (1.2%) were called active. Inconclusive means that the source gave no clear call. Such entries were picked first, then a sample of the others. The call rests on the fitted dose curve; tested in HEK293 cells. A potency beside an inconclusive call is a rough fit, not a confirmed value.
# Test: qHTS for Inhibitors of binding or entry into cells for Lassa Virus; further: nearly all actives have a fitted effect of over 50% in size
# Details: Lassa virus pseudotype entry inhibition, cell reporter; series mostly up to 37.9 µM
# Potency means the concentration at half of the fitted maximal effect.
row,SMILES,Potency
1,Clc1cc(Cl)cc(Nc2ncnc(-n3cccc3)n2)c1,inactive
2,CC(C)SCCCCOc1ccc2ccccc2c1,"inconclusive: 1.16 µM [activator, full curve]"
3,CCCCc1ccc(N=N/C(C(=O)Nc2cc(OC)c(NC(C)=O)cc2OC)=C(/C)O)cc1,"inconclusive: 35.5 µM [activator, single point]"
4,Cc1ccc(C(=O)Nc2sc3c(c2C#N)CCCCC3)cc1C,inactive
5,COc1ccc(C2C(O)C(c3c[nH]c4ccccc34)=NN2C(=O)CCl)cc1 (configuration not stated),"inconclusive: 7.08 µM [inhibitor, full curve, poor fit]"
6,O=C(Nc1ncc2c(n1)-c1ccccc1CC2)C1CC1,"inconclusive: 11.2 µM [inhibitor, partial curve, poor fit]"
7,CC12c3ccccc3C(c3ccccc31)C1C(=O)N(c3ccncc3)C(=O)C12 (configuration not stated),"inconclusive: 8.91 µM [inhibitor, partial curve]"
8,Cc1c(/C=N/NC(=O)C(NC(=O)c2ccc3c(c2)OCO3)C(C)C)c2ccccc2n1C (configuration not stated),"inconclusive: 25.1 µM [inhibitor, single point]"
9,Cc1ccc(Cl)cc1N1CCN(C(=O)c2cccc3c(=O)c(C)c(-c4ccccc4)oc23)CC1,"inconclusive: 35.5 µM [inhibitor, single point]"
10,O=C(c1ccccc1)c1nc[nH]c1C(=O)Nc1ccccc1,"inconclusive: 2.51 µM [inhibitor, partial curve, poor fit]"
11,COC(=O)c1ccc(C)c(NS(=O)(=O)c2ccc(NC(C)=O)cc2)c1,"inconclusive: 1.83 µM [inhibitor, partial curve, poor fit]"
12,COc1cc(/C=C/C(=O)N2CCOCC2)ccc1OCc1ccccc1,"inconclusive: 25.9 µM [inhibitor, single point]"
13,COc1cccc(C(=O)NC(=S)Nc2ccc(N3CCCC3)cc2)c1,"inconclusive: 15.8 µM [inhibitor, single point]"
14,CCOc1ccc2oc(C(=O)NN3C(C)CCCC3C)c(C)c2c1 (configuration not stated),"inconclusive: 11.2 µM [inhibitor, partial curve]"
15,O=C1CCCN1CCC(=O)N1CCCC(N2CCN(c3ccccc3F)CC2)C1 (configuration not stated),"inconclusive: 6.31 µM [activator, full curve, poor fit]"
16,Cc1ccc(C(=O)N/N=C/C2=Cc3ccccc3OC2C)cc1 (configuration not stated),"inconclusive: 22.4 µM [inhibitor, single point]"
17,COc1cccc(CNC(=O)Cc2ccc(NC(=O)N3CCCCc4ccccc43)cc2)c1OC,inactive
18,CC1=C(C(N)=O)C(c2ccccn2)n2nc(SCc3ccccc3Cl)nc2N1 (configuration not stated),"inconclusive: 32.6 µM [inhibitor, partial curve, poor fit]"
19,O=C(Nc1ccc(N2CCOCC2)cc1)c1ccncc1,inactive
20,Cc1ccc(-c2cn3cccc(C)c3n2)cc1,"inconclusive: 7.08 µM [inhibitor, partial curve, poor fit]"
21,O=C(N/N=C/c1cc(Br)c(Br)o1)c1cc2ccccc2o1,"inconclusive: 1.26 µM [activator, full curve, poor fit]"
22,O=C(c1ccco1)N1CCN(C(=O)c2ccccc2OCc2ccc(Cl)cc2)CC1,"inconclusive: 0.631 µM [inhibitor, full curve, poor fit]"
23,COc1ccc(OC)c(/C=N/N(C)c2ccccc2)c1,inactive

row,SMILES,Potency
1,Cn1c(NCCCN2CCOCC2)nc2c1c(=O)n(Cc1ccc(Cl)cc1Cl)c(=O)n2C,inactive
2,Cc1nc(C)c(-c2csc(Nc3cccc(O)c3)n2)s1,inactive
3,Cc1cc(=O)n2c(n1)NC(Nc1cccc(C)c1C)=NC2c1ccc(F)cc1 (configuration not stated),inactive
4,CCOc1ccc(NC(=O)c2cccnc2SC)cc1,inactive
5,COc1cc(SC)ccc1C(=O)NCCOc1ccccc1Cl,"inconclusive: 9.2 µM [activator, partial curve, poor fit]"
6,CC(C)CC(C(=O)NCc1ccc(F)cc1)N1Cc2ccccc2C1=O (configuration not stated),inactive
7,N/C(=N\OC(=O)c1ccncc1)c1cccc([N+](=O)[O-])c1,"inconclusive: 11.2 µM [activator, single point]"
8,Cc1ccc(CN(Cc2cccnc2)C(=S)Nc2cccc(Cl)c2C)cc1,"inconclusive: 17.8 µM [inhibitor, single point]"
9,O=C(Nc1ccc(Cl)cc1)N1CCN(c2ncccn2)CC1,"inconclusive: 1.12 µM [activator, full curve]"
10,COc1cccc2cc(C(C)N(CCCN3CCOCC3)C(=S)Nc3cc(C)ccc3C)oc12 (configuration not stated),"inconclusive: 11.2 µM [inhibitor, partial curve, poor fit]"
11,O=C1C(c2ccccc2)c2ccccc2N1Cc1ccccc1 (configuration not stated),"inconclusive: 3.55 µM [activator, partial curve]"
12,Nc1cc(=O)[nH]c(SCC(=O)Nc2cccc(S(=O)(=O)N3CCCCCC3)c2)n1,inactive
13,O=C(NCc1ccc2c(c1)OCO2)c1cc([N+](=O)[O-])ccc1N1CCCCC1,"inconclusive: 1.58 µM [inhibitor, partial curve, poor fit]"
14,Cc1ccc(C)c(-n2c(CCC(=O)O)ccc2-c2ccc(Cl)cc2)c1,inactive
15,COc1ccc(C(=O)NC(=S)NNC(=O)c2ccc3ccccc3n2)cc1,"inconclusive: 12.6 µM [inhibitor, partial curve, poor fit]"
16,C[N+]1(CCCCC[N+]2(C)CCCC2)CCCC1,"inconclusive: 0.411 µM [activator, full curve, poor fit]"
17,Cn1cccc1/C=C(/C#N)C(N)=S,"inconclusive: 0.501 µM [inhibitor, single point]"
18,COc1ccccc1C(=O)n1nc(-c2ccco2)nc1NCc1ccc(Cl)cc1,"inconclusive: 15.8 µM [activator, single point]"
19,O=C(Nc1cnn(C23CC4CC(CC(C4)C2)C3)c1)c1cnn2cccnc12,"inconclusive: 14.6 µM [inhibitor, single point]"
20,COc1ccc(N2CCN(C(=O)c3ccc4c(c3)N(Cc3ccc(F)cc3)C(=O)c3ccccc3S4=O)CC2)cc1 (configuration not stated),"inconclusive: 35.5 µM [activator, single point]"
21,CC1=NNC(=O)C1CC(=O)N/N=C(/C)c1cccc([N+](=O)[O-])c1 (configuration not stated),"inconclusive: 0.891 µM [inhibitor, single point]"
22,Cc1ccc(S(=O)(=O)N2CCCN(Cc3nc4ccccc4c(=O)[nH]3)CC2)cc1,inactive
23,O=C(CCc1nnc(-c2ccc3c(c2)OCO3)o1)NC(c1cccnc1)C(F)(F)F (configuration not stated),inactive

# By substructure: the entries above containing fluorine (5)
row,SMILES,Potency
15,O=C1CCCN1CCC(=O)N1CCCC(N2CCN(c3ccccc3F)CC2)C1 (configuration not stated),"inconclusive: 6.31 µM [activator, full curve, poor fit]"
3,Cc1cc(=O)n2c(n1)NC(Nc1cccc(C)c1C)=NC2c1ccc(F)cc1 (configuration not stated),inactive
6,CC(C)CC(C(=O)NCc1ccc(F)cc1)N1Cc2ccccc2C1=O (configuration not stated),inactive
20,COc1ccc(N2CCN(C(=O)c3ccc4c(c3)N(Cc3ccc(F)cc3)C(=O)c3ccccc3S4=O)CC2)cc1 (configuration not stated),"inconclusive: 35.5 µM [activator, single point]"
23,O=C(CCc1nnc(-c2ccc3c(c2)OCO3)o1)NC(c1cccnc1)C(F)(F)F (configuration not stated),inactive

# Further compounds follow:

row,SMILES,Potency
1,O=C(N/N=C/c1cccc(OC(=O)c2ccc3c(c2)OCO3)c1)c1cncc(Br)c1,inactive
2,CC(=O)N/C(=C\c1ccccc1)C(=O)OCC(=O)c1c(N)n(C)c(=O)n(C)c1=O,"inconclusive: 1.26 µM [inhibitor, single point]"
3,CCCC(=O)C1=C(O)C(C(=O)OC)C(C)(C)CC1=Nc1cccc2ccccc12 (configuration not stated),"inconclusive: 10 µM [inhibitor, partial curve, poor fit]"
4,C=CCNC(=O)c1ccc2nc(Cc3ccc(OC)cc3)oc2c1,active: 5.62 µM
5,Cc1ccc(-n2ncc3c(N4CCC(C(N)=O)CC4)ncnc32)c(C)c1,"inconclusive: 4.11 µM [activator, full curve, poor fit]"
6,COc1ccc2c(=O)c(-c3ccccc3)c(C)oc2c1,inactive
7,CC(C(=O)Nc1cc(C(F)(F)F)ccc1Cl)n1nnc2sc3c(c2c1=O)CCCC3 (configuration not stated),inactive
8,CCCCc1nc2cc(C(=O)N3CCN(c4cnccn4)CC3)ccc2o1,"inconclusive: 10 µM [activator, partial curve, poor fit]"
9,CCOC(=O)c1c(C)[nH]c(C(=O)OCc2ccccc2)c1C,"inconclusive: 3.16 µM [inhibitor, partial curve, poor fit]"
10,COc1cc(C=NNc2ncnc3c2cnn3C(C)C)ccc1O,active: 12.5 µM
11,CCCOC(=O)c1c(NC(=O)C2c3ccccc3Oc3ccccc32)sc2c1CCC(C)C2 (configuration not stated),inactive
12,Cc1ccccc1OCc1nnc(SCC(=O)Nc2ccc3c(c2)oc2ccccc23)n1C,inactive
13,Nc1cc(N)nc(SCC(=O)Nc2ccccc2)n1,"inconclusive: 23.1 µM [activator, partial curve, poor fit]"
14,COc1cc2ccccc2c2c1CCCC2=O,"inconclusive: 35.5 µM [activator, single point]"
15,CCN(CC(=O)Nc1ccc(NC(C)=O)cc1)C(=O)/C=C/c1c(C)nn(-c2ccc(F)cc2)c1Cl,"inconclusive: 11.2 µM [inhibitor, single point]"
16,COc1ccc(-c2nc3c(c4c2C[C@H](c2ccccc2)OC4)CN(S(=O)(=O)c2ccc(NC(C)=O)cc2)CC3)c(C)c1,"inconclusive: 1.5 µM [inhibitor, partial curve, poor fit]"
17,Cc1onc(-c2ccccc2)c1C(=O)N/N=C/c1cc2c(cc1Cl)OCO2,"inconclusive: 5.17 µM [inhibitor, partial curve]"
18,CCOC(=O)c1c(C)n(CC(O)c2ccccc2)c2ccc(O)cc12 (configuration not stated),"inconclusive: 35.5 µM [inhibitor, single point]"
19,CCOC(=O)C1(CCOc2ccccc2)CCN(Cc2ccc(F)c(OC)c2)CC1,"inconclusive: 8.91 µM [inhibitor, partial curve, poor fit]"
20,c1ccc2[nH]c(C3CC3)nc2c1,inactive
21,CC(=O)c1cccc(NC(=O)N2CCCC2C(=O)Nc2ccc3c(c2)OCCO3)c1 (configuration not stated),"inconclusive: 5.62 µM [activator, partial curve, poor fit]"

# Source: PubChem BioAssay AID540256 (National Center for Advancing Translational Sciences (NCATS), 2011)
